Results are given in words; binding and its absence hold for the method and conditions named. In cells and extracts the contact can be indirect. Some entries that bind do so weakly or less than the wild type. For some assays here: Where a sequence is shown, tags or fusion partners need not be part of it.

Chains of the proteins cited; added tags and fusions are not shown.
UniProt Q66125, whole entry: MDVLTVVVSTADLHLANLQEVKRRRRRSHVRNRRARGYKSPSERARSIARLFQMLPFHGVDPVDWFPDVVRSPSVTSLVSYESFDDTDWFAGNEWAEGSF
UniProt P17769, whole entry: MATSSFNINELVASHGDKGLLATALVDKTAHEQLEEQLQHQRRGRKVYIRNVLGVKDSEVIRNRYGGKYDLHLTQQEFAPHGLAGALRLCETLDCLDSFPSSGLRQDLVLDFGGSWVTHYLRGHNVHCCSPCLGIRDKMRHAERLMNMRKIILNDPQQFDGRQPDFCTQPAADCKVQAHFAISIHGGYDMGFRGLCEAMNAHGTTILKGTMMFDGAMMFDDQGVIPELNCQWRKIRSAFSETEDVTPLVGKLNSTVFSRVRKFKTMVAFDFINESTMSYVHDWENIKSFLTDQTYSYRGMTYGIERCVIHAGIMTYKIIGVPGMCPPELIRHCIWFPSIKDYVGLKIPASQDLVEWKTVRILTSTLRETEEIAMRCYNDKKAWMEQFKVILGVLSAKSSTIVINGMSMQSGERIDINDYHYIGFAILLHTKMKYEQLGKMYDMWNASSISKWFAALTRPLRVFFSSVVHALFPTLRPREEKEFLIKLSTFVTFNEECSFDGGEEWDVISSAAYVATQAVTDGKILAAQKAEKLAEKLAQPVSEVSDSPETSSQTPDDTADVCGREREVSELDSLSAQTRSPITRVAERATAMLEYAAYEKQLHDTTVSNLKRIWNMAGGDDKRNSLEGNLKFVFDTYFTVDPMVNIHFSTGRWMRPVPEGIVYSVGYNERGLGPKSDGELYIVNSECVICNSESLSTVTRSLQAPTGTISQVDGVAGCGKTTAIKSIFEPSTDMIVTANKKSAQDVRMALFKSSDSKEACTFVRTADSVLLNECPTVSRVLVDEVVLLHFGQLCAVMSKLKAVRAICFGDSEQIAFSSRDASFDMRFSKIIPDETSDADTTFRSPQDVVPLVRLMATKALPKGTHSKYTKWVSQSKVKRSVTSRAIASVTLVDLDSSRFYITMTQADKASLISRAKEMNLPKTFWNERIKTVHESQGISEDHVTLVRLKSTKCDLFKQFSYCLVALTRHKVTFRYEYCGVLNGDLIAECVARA

This passage reports binding results from paper doi:10.1101/2023.08.31.555694.

In experiment [1] the target is LS-CMV 2b protein, C-terminal RFP fusion (cucumber mosaic virus, strain LS) (UniProt Q66125). In words: co-IP.
Experiment [2] concerns the target T1, GFP-AGO1 fusion protein (Arabidopsis thaliana Argonaute 1) (A. thaliana) (UniProt O04379).
T1 sequence: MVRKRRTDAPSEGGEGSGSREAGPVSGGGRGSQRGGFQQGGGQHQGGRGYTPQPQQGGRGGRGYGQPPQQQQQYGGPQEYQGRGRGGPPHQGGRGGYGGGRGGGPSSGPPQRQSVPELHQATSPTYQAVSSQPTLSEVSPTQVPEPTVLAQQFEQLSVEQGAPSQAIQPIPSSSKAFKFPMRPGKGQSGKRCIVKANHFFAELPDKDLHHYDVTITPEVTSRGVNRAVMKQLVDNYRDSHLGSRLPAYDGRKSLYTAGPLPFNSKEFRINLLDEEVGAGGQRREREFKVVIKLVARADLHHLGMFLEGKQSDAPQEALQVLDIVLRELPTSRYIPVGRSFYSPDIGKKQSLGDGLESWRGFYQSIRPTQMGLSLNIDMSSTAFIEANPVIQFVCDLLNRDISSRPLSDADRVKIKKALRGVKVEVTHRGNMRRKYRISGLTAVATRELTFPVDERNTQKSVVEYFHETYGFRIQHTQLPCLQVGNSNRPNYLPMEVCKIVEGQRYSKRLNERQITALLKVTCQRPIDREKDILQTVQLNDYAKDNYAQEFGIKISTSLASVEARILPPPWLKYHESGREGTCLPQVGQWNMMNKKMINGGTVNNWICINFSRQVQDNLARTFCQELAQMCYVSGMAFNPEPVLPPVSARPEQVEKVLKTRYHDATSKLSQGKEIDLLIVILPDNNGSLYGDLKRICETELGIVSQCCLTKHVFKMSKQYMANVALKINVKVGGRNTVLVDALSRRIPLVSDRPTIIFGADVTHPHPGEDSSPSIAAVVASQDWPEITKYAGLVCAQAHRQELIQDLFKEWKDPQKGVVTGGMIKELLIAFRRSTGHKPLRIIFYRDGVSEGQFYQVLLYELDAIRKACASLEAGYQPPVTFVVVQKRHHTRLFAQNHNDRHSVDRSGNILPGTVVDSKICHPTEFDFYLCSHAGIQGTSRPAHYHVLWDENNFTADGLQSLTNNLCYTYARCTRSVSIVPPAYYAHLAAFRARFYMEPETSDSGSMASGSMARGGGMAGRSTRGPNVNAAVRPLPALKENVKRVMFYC
In words: co-IP.

In experiment [3] the target is T2, Argonaute 1 protein-yellow fluorescent protein N-proximal domain fusion protein (A. thaliana) (UniProt O04379).
T2 sequence: T1 sequence
In words: split reporter.

Experiment [4] addresses Fny-CMV 1a protein, YFP N-proximal domain fusion for BiFC (cucumber mosaic virus, strain Fny) (UniProt P17769). In words: split reporter.
Experiment [5] concerns the target LS-CMV 2b protein, split-YFP fusion for BiFC (cucumber mosaic virus, strain LS) (UniProt Q66125). The experiment can be described thus: split reporter.

“GFP-tagged Fny-CMV 1a protein (from UniProt P17769 1-993)”: the binding entry in experiment [1] is “no binding”.

On to “LS-CMV 2b protein, C-terminal RFP fusion (from UniProt Q66125 1-100)”, for which, in experiment [2], the binding entry is on record as “binds”.

Consider “LS-CMV 2b protein, split-YFP fusion for BiFC (from UniProt Q66125 1-100)”, for which the binding result in experiment [3] is “binds”; in experiment [4] it was “no binding”; in experiment [5] it was “binds”.
